Values quoted from earlier work in US20220000854A1 (CHASE THERAPEUTICS CORPORATION, priority 2018, published 2022).

System: brain cell systems
Conditions: cited from earlier work

## CC(C)c1c(C(=O)Nc2ccccc2)c(-c2ccccc2)c(-c2ccc(F)cc2)n1CC[C@@H](O)C[C@@H](O)CC(=O)O [atorvastatin, (3R,5R)-7-[2-(4-fluorophenyl)-3-phenyl-4-(phenylcarbamoyl)-5-propan-2-ylpyrrol-1-yl]-3,5-dihydroxyheptanoic acid]
  protection against 6-hydroxydopamine (6-OHDA): protect against the deleterious consequences of the dopaminergic neurotoxin 6-hydroxydopamine
